In PMC8813925 one finds binding data, which are given here for one substance.

The chains behind the UniProt entries cited, without tags or fusion partners.
UniProt P01106: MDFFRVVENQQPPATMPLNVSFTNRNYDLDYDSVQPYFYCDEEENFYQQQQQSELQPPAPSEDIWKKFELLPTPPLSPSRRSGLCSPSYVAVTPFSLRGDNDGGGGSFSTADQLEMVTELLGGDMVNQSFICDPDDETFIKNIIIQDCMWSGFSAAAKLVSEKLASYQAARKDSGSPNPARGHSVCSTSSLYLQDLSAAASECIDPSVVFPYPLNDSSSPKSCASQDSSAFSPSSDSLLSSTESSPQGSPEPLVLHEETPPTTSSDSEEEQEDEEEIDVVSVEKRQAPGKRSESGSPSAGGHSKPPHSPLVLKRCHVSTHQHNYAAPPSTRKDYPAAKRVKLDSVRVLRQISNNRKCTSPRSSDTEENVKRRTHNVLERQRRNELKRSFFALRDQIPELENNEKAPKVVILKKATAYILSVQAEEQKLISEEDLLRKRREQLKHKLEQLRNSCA
UniProt O14733: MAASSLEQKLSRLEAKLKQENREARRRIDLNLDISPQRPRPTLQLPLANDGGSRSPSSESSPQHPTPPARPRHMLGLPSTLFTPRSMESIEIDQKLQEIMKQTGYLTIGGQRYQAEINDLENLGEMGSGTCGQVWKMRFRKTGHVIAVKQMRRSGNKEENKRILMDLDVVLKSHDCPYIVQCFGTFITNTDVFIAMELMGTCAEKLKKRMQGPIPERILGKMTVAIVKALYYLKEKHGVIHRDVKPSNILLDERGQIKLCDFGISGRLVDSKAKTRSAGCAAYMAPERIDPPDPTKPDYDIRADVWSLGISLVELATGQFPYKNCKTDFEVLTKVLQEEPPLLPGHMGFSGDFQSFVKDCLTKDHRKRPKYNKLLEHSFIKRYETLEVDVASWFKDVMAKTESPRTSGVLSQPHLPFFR

In assay [1] the target is c-Myc, endogenous (human (endogenous in PC3)) (UniProt P01106). Kind of assay: proximity ligation; endogenous MKK7 and c-Myc in PC3 cells.
Assay [2] concerns the target c-Myc expressed from the transfected MYC plasmid (UniProt P01106). In words: proximity ligation; MKK7-c-Myc complex in RIPK2-KO HEK293T cells transiently transfected with MYC and RIPK2m4 or vector control.

No constants are given. Whether binding was seen depends on the method and setting. In cells and extracts the contact can be indirect. Some entries that bind do so weakly or less than the wild type.

Regarding “mitogen-activated protein kinase kinase 7 (MKK7), endogenous (from UniProt O14733 1-419)”, the binding result in assay [1] and in assay [2] was “binds” in each case.
